These are yes or no findings as the source states them, for the method shown. In cells and extracts the contact can be indirect. Some results given as binding are weak or reduced against the parent protein; the word gives no strength.

The results in this text go back to publication PMC12484798.

In assay [1] the target is T1, TAF4A (mouse (endogenous in C2C12 and primary mouse MuSCs)) (UniProt E9QAP7).
T1 sequence: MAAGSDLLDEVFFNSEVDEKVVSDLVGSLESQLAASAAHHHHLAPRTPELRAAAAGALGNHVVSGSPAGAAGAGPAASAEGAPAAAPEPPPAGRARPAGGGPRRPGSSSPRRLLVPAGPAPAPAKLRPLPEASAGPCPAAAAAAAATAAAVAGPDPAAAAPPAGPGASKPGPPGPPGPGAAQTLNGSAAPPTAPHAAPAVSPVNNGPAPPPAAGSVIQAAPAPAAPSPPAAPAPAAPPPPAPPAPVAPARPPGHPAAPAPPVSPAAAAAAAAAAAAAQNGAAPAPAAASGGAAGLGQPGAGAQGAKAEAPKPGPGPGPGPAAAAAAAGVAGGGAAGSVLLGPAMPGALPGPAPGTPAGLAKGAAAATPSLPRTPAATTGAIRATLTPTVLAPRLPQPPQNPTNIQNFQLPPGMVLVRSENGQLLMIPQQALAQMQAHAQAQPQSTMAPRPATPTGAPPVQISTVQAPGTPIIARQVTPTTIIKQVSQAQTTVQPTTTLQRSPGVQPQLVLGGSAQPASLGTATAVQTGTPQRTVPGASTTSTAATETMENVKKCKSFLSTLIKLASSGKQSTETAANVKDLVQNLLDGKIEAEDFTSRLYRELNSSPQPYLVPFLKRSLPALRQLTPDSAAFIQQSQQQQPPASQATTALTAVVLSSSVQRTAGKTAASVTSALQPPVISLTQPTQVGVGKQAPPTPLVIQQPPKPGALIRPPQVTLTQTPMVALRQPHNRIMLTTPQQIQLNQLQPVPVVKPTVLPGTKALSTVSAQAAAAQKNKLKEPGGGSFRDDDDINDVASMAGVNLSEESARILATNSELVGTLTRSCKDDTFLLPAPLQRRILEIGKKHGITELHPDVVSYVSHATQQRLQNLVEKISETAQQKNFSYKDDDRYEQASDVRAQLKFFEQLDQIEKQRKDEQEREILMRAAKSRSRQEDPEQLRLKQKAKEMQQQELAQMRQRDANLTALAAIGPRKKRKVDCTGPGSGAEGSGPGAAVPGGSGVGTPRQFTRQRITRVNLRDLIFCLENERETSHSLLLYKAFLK
The assay can be described thus: co-IP; C2C12 cell lysate in RIPA buffer (50 mM Tris-HCl pH 7.4, 150 mM NaCl, 1% NP-40, 0.1% sodium deoxycholate), briefly sonicated; anti-TAF4A antibody overnight at 4 °C, Dynabeads Protein G; Western blot. (In general: In western blotting, separated proteins are transferred to a membrane and probed.)

The target in assay [2] is T1, TAF4A (mouse (endogenous in C2C12 and primary mouse MuSCs)). Kind of assay: co-IP; primary wild-type MuSC lysate in RIPA buffer (50 mM Tris-HCl pH 7.4, 150 mM NaCl, 1% NP-40, 0.1% sodium deoxycholate), briefly sonicated; anti-TAF4A antibody overnight at 4 °C, Dynabeads Protein G; Western blot for NF-YA or NF-YB.

B1: NF-YB (protein, UniProt P63139 1-207)
chain: MTMDGDSSTTDASQLGISADYIGGSHYVIQPHDDTEDSMNDHEDTNGSKESFREQDIYLPIANVARIMKNAIPQTGKIAKDAKECVQECVSEFISFITSEASERCHQEKRKTINGEDILFAMSTLGFDSYVEPLKLYLQKFREAMKGEKGIGGAVSATDGLSEELTEEAFTNQLPAGLITADGQQQNVMVYTTSYQQISGVQQIQFS
On to B1, for which the binding entry in assay [1] and in assay [2] was “binds” each time.
